# Experimental data: patent US4826813A, “4'-Methyl-β-mercapto-β,β-cyclopentamethylenepropionic acid vasopressin antagonists” (SmithKline Beckman Corporation, priority 1987, dated 1989)
# Not every detail of the peptide structures is certain; ends, links or a residue may be inferred. *1 amine or outer side, *2 acyl side, *3 side chain or, on linkers, in order; H or OH if unused. Where a SMILES comes first, the peptide text is derived from it. Bridges are numbered along the chain shown (N, C = ends). [ ]: non-standard residue; d: D form. X2 = C[C@H]1CC[C@@](CC(=O)[*:1])(S[*:2])CC1; X1 = O=C(CC1(S[*:2])CCCCC1)[*:1]
# Legend:
# female mongrel dogs = test: partial agonist screen, indomethacin dog model under steady state water diuresis; assay type: in vivo; settings: for osmolality +INDO / volume +INDO: with indomethacin; for (partial) agonist activity in the dog test: indomethacin dog model, in words
# hydropenic rat = hydropenic rat screen, anti-ADH activity in vivo
# man = settings: Dubb et al., Kidney Int. 31, 267; cited from earlier work
# rats = settings: Manning et al., Nature 308, 652; cited from earlier work
# vasopressin = settings: Manning et al., Nature 308, 652; cited from earlier work
# [1] = urine, dog, 100 μg/kg i.v., three hours post dosing
# [2] = urine, dog, 100 μg/kg i.v., three hours post dosing, without indomethacin
Structure (SMILES),osmolality +INDO (female mongrel dogs; [1]) [mOsm/kg H2 O],volume +INDO (female mongrel dogs; [1]) [mL/min],Rat in vivo ED300 (hydropenic rat) [µg/kg],(partial) agonist activity in the dog test (female mongrel dogs),(partial) agonist activity in the dog test (female mongrel dogs; listed as des-methyl compound (R=Pmp and Q=NH2)),osmolality control (female mongrel dogs; [2]) [mOsm/kg H2 O],volume control (female mongrel dogs; [2]) [mL/min],agonist activity in man (man),vasopressin agonist activity in vivo in rats (rats),vasopressin antagonist activity (vasopressin)
"CCOc1ccc(C[C@H]2NC(=O)CC3(CCCCC3)SSC[C@@H](C(=O)N3CCC[C@H]3C(=O)N[C@@H](CCCNC(=N)N)C(=O)NCC(N)=O)NC(=O)[C@H](CC(N)=O)NC(=O)[C@H](C(C)C)NC(=O)[C@H](Cc3ccccc3)NC2=O)cc1 [R = Pmp, Q = GlyNH2] ([dY](Et)FVNCPRG-NH2; linker N-5 via X1)",399,0.55,,,,,,,,
COc1ccc(C[C@@H]2NC(=O)C[C@]3(CC[C@H](C)CC3)SSC[C@@H](C(=O)N3CCC[C@H]3C(=O)N[C@@H](CCCNC(=N)N)C(=O)NCC(N)=O)NC(=O)[C@H](CC(N)=O)NC(=O)[C@H](C(C)C)NC(=O)[C@H](Cc3ccccc3)NC2=O)cc1 [LTyr(Me) GlyNH2] (Y(Me)FVNCPRG-NH2; linker N-5 via X2),,,165,,,,,,,
"CCOc1ccc(C[C@H]2NC(=O)CC3(CCCCC3)SSC[C@@H](C(=O)N3CCC[C@H]3C(=O)N[C@@H](CCCNC(=N)N)C(N)=O)NC(=O)[C@H](CC(N)=O)NC(=O)[C@H](C(C)C)NC(=O)[C@H](Cc3ccccc3)NC2=O)cc1 [R = Pmp, Q = NH2] ([dY](Et)FVNCPR-NH2; linker N-5 via X1)",1419,0.15,,does produce agonist activity,behaves as an agonist,284,1.2,only agonist activity,devoid of detectable vasopressin aqonist activity,potent vasopressin antagonist activity
"CCOc1ccc(C[C@H]2NC(=O)C[C@]3(CC[C@H](C)CC3)SSC[C@@H](C(=O)N3CCC[C@H]3C(=O)N[C@@H](CCCNC(=N)N)C(=O)NCC(N)=O)NC(=O)[C@H](CC(N)=O)NC(=O)[C@H](C(C)C)NC(=O)[C@H](Cc3ccccc3)NC2=O)cc1 [DTyr(Et) GlyNH2, [1-(4'-methyl-β-mercapto-β,β-cyclopentamethylene propionic acid)-2-(O-ethyl)-D-tyrosine-4-valine-8-arginine]-vasopressin] ([dY](Et)FVNCPRG-NH2; linker N-5 via X2)",72,3.3,13,,,,,,,
